Measurements: PMC5433425 (PeerJ, 2017)
Read-outs that look alike come from different tables or passages of the source. Further values from the same series stand in other lists.

Tested on: E. coli AG100A

Q: With `CC[n+]1c(-c2ccccc2)c2cc(N)ccc2c2ccc(N)cc21` [EtBr, ethidium bromide] as the compound, how does the EtBr fluorescence (EtBr 0.125 µg/ml, cycle 1) read?
A: The EtBr fluorescence was 1.587.

Q: And the EtBr fluorescence (EtBr 0.125 µg/ml, cycle 2)?
A: Its EtBr fluorescence is 1.646.

Q: And the EtBr fluorescence (EtBr 0.125 µg/ml, cycle 3)?
A: The EtBr fluorescence was 1.75.

Q: What about the EtBr fluorescence (EtBr 0.125 µg/ml, cycle 4) of the same compound?
A: Its EtBr fluorescence is 1.846.

Q: What about the EtBr fluorescence (EtBr 0.125 µg/ml, cycle 5) of the same compound?
A: The EtBr fluorescence was 1.916.

Q: What about the EtBr fluorescence (EtBr 0.125 µg/ml, cycle 6) of the same compound?
A: The EtBr fluorescence was 1.959.

Q: What about the EtBr fluorescence (EtBr 0.125 µg/ml, cycle 7) of the same compound?
A: The EtBr fluorescence was 2.099.

Q: And the EtBr fluorescence (EtBr 0.125 µg/ml, cycle 8)?
A: Its EtBr fluorescence is 2.177.

Q: And the EtBr fluorescence (EtBr 0.125 µg/ml, cycle 9)?
A: Its EtBr fluorescence is 2.249.

Q: And the EtBr fluorescence (EtBr 0.125 µg/ml, cycle 10)?
A: Its EtBr fluorescence is 2.264.

Q: What about the EtBr fluorescence (EtBr 0.125 µg/ml, cycle 11) of the same compound?
A: Its EtBr fluorescence is 2.413.

Q: What about the EtBr fluorescence (EtBr 0.125 µg/ml, cycle 12) of the same compound?
A: The EtBr fluorescence was 2.539.

Q: And the EtBr fluorescence (EtBr 0.125 µg/ml, cycle 13)?
A: The EtBr fluorescence was 2.534.

Q: And the EtBr fluorescence (EtBr 0.125 µg/ml, cycle 14)?
A: Its EtBr fluorescence is 2.631.

Q: What about the EtBr fluorescence (EtBr 0.125 µg/ml, cycle 15) of the same compound?
A: Its EtBr fluorescence is 2.6554.

Q: What about the EtBr fluorescence (EtBr 0.125 µg/ml, cycle 16) of the same compound?
A: The EtBr fluorescence was 2.7455.

Q: What about the EtBr fluorescence (EtBr 0.125 µg/ml, cycle 17) of the same compound?
A: The EtBr fluorescence was 2.841.

Q: What about the EtBr fluorescence (EtBr 0.125 µg/ml, cycle 18) of the same compound?
A: Its EtBr fluorescence is 2.931.

Q: What about the EtBr fluorescence (EtBr 0.125 µg/ml, cycle 19) of the same compound?
A: The EtBr fluorescence was 2.991.

Q: What about the EtBr fluorescence (EtBr 0.125 µg/ml, cycle 20) of the same compound?
A: Its EtBr fluorescence is 3.077.

Q: What about the EtBr fluorescence (EtBr 0.125 µg/ml, cycle 21) of the same compound?
A: The EtBr fluorescence was 3.104.

Q: And the EtBr fluorescence (EtBr 0.125 µg/ml, cycle 22)?
A: Its EtBr fluorescence is 3.1693.

Q: And the EtBr fluorescence (EtBr 0.125 µg/ml, cycle 23)?
A: Its EtBr fluorescence is 3.1574.

Q: What about the EtBr fluorescence (EtBr 0.5 µg/ml, cycle 1) of the same compound?
A: Its EtBr fluorescence is 2.651.

Q: And the EtBr fluorescence (EtBr 0.5 µg/ml, cycle 2)?
A: The EtBr fluorescence was 3.201.

Q: What about the EtBr fluorescence (EtBr 0.5 µg/ml, cycle 4) of the same compound?
A: The EtBr fluorescence was 4.126.

Q: And the EtBr fluorescence (EtBr 0.5 µg/ml, cycle 5)?
A: The EtBr fluorescence was 4.392.

Q: What about the EtBr fluorescence (EtBr 0.5 µg/ml, cycle 6) of the same compound?
A: The EtBr fluorescence was 4.848.

Q: What about the EtBr fluorescence (EtBr 0.5 µg/ml, cycle 7) of the same compound?
A: The EtBr fluorescence was 5.184.

Q: And the EtBr fluorescence (EtBr 0.5 µg/ml, cycle 8)?
A: Its EtBr fluorescence is 5.472.

Q: What about the EtBr fluorescence (EtBr 0.5 µg/ml, cycle 9) of the same compound?
A: The EtBr fluorescence was 5.933.

Q: What about the EtBr fluorescence (EtBr 0.5 µg/ml, cycle 10) of the same compound?
A: The EtBr fluorescence was 6.2583.

Q: And the EtBr fluorescence (EtBr 0.5 µg/ml, cycle 11)?
A: The EtBr fluorescence was 6.734.

Q: What about the EtBr fluorescence (EtBr 0.5 µg/ml, cycle 12) of the same compound?
A: The EtBr fluorescence was 7.012.

Q: What about the EtBr fluorescence (EtBr 0.5 µg/ml, cycle 13) of the same compound?
A: The EtBr fluorescence was 7.3032.

Q: And the EtBr fluorescence (EtBr 0.5 µg/ml, cycle 14)?
A: Its EtBr fluorescence is 7.594.

Q: What about the EtBr fluorescence (EtBr 0.5 µg/ml, cycle 15) of the same compound?
A: The EtBr fluorescence was 7.944.

Q: What about the EtBr fluorescence (EtBr 0.5 µg/ml, cycle 16) of the same compound?
A: Its EtBr fluorescence is 8.224.

Q: And the EtBr fluorescence (EtBr 0.5 µg/ml, cycle 17)?
A: Its EtBr fluorescence is 8.665.

Q: What about the EtBr fluorescence (EtBr 0.5 µg/ml, cycle 18) of the same compound?
A: Its EtBr fluorescence is 8.971.

Q: What about the EtBr fluorescence (EtBr 0.5 µg/ml, cycle 19) of the same compound?
A: The EtBr fluorescence was 9.32.

Q: And the EtBr fluorescence (EtBr 0.5 µg/ml, cycle 20)?
A: Its EtBr fluorescence is 9.529.

Q: What about the EtBr fluorescence (EtBr 0.5 µg/ml, cycle 21) of the same compound?
A: The EtBr fluorescence was 9.672.

Q: And the EtBr fluorescence (EtBr 0.5 µg/ml, cycle 22)?
A: Its EtBr fluorescence is 10.0306.

Q: And the EtBr fluorescence (EtBr 0.5 µg/ml, cycle 23)?
A: Its EtBr fluorescence is 10.2683.

Q: And the EtBr fluorescence (EtBr 1 µg/ml, cycle 1)?
A: Its EtBr fluorescence is 6.097.

Q: And the EtBr fluorescence (EtBr 1 µg/ml, cycle 2)?
A: The EtBr fluorescence was 7.549.

Q: What about the EtBr fluorescence (EtBr 1 µg/ml, cycle 3) of the same compound?
A: The EtBr fluorescence was 8.8607.

Q: And the EtBr fluorescence (EtBr 1 µg/ml, cycle 4)?
A: Its EtBr fluorescence is 9.904.

Q: What about the EtBr fluorescence (EtBr 1 µg/ml, cycle 7) of the same compound?
A: The EtBr fluorescence was 12.9196.

Q: What about the EtBr fluorescence (EtBr 1 µg/ml, cycle 8) of the same compound?
A: Its EtBr fluorescence is 13.9929.

Q: What about the EtBr fluorescence (EtBr 1 µg/ml, cycle 9) of the same compound?
A: Its EtBr fluorescence is 15.0008.

Q: And the EtBr fluorescence (EtBr 1 µg/ml, cycle 10)?
A: Its EtBr fluorescence is 15.8398.

Q: What about the EtBr fluorescence (EtBr 1 µg/ml, cycle 11) of the same compound?
A: The EtBr fluorescence was 16.9387.

Q: What about the EtBr fluorescence (EtBr 1 µg/ml, cycle 12) of the same compound?
A: The EtBr fluorescence was 18.2898.

Q: And the EtBr fluorescence (EtBr 1 µg/ml, cycle 13)?
A: The EtBr fluorescence was 19.2285.

Q: And the EtBr fluorescence (EtBr 1 µg/ml, cycle 14)?
A: Its EtBr fluorescence is 20.233.

Q: And the EtBr fluorescence (EtBr 1 µg/ml, cycle 15)?
A: Its EtBr fluorescence is 21.445.

Q: And the EtBr fluorescence (EtBr 1 µg/ml, cycle 16)?
A: Its EtBr fluorescence is 22.229.

Q: What about the EtBr fluorescence (EtBr 1 µg/ml, cycle 17) of the same compound?
A: The EtBr fluorescence was 23.6389.

Q: And the EtBr fluorescence (EtBr 1 µg/ml, cycle 18)?
A: The EtBr fluorescence was 24.5113.

Q: What about the EtBr fluorescence (EtBr 1 µg/ml, cycle 23) of the same compound?
A: The EtBr fluorescence was 29.5388.

Q: And the EtBr fluorescence (EtBr 1 µg/ml, cycle 24)?
A: The EtBr fluorescence was 30.5695.

Q: And the EtBr fluorescence (EtBr 1 µg/ml, cycle 25)?
A: Its EtBr fluorescence is 30.98.

Q: What about the EtBr fluorescence (EtBr 1 µg/ml, cycle 26) of the same compound?
A: The EtBr fluorescence was 32.2373.

Q: What about the EtBr fluorescence (EtBr 1 µg/ml, cycle 27) of the same compound?
A: The EtBr fluorescence was 32.5478.

Q: What about the EtBr fluorescence (EtBr 1 µg/ml, cycle 28) of the same compound?
A: Its EtBr fluorescence is 33.5269.

Q: What about the EtBr fluorescence (EtBr 1 µg/ml, cycle 29) of the same compound?
A: The EtBr fluorescence was 34.0992.

Q: What about the EtBr fluorescence (EtBr 1 µg/ml, cycle 30) of the same compound?
A: Its EtBr fluorescence is 35.0568.

Q: What about the EtBr fluorescence (EtBr 2 µg/ml, cycle 1) of the same compound?
A: The EtBr fluorescence was 13.8754.

Q: And the EtBr fluorescence (EtBr 2 µg/ml, cycle 2)?
A: Its EtBr fluorescence is 17.6616.

Q: What about the EtBr fluorescence (EtBr 2 µg/ml, cycle 3) of the same compound?
A: The EtBr fluorescence was 21.3751.

Q: What about the EtBr fluorescence (EtBr 2 µg/ml, cycle 4) of the same compound?
A: Its EtBr fluorescence is 24.3701.

Q: And the EtBr fluorescence (EtBr 2 µg/ml, cycle 6)?
A: Its EtBr fluorescence is 30.2214.

Q: And the EtBr fluorescence (EtBr 2 µg/ml, cycle 7)?
A: The EtBr fluorescence was 32.7563.

Q: And the EtBr fluorescence (EtBr 2 µg/ml, cycle 8)?
A: Its EtBr fluorescence is 35.3071.

Q: What about the EtBr fluorescence (EtBr 2 µg/ml, cycle 9) of the same compound?
A: Its EtBr fluorescence is 38.5094.

Q: And the EtBr fluorescence (EtBr 2 µg/ml, cycle 10)?
A: The EtBr fluorescence was 40.3166.

Q: What about the EtBr fluorescence (EtBr 2 µg/ml, cycle 11) of the same compound?
A: Its EtBr fluorescence is 43.5877.

Q: And the EtBr fluorescence (EtBr 2 µg/ml, cycle 12)?
A: Its EtBr fluorescence is 45.9794.

Q: What about the EtBr fluorescence (EtBr 2 µg/ml, cycle 13) of the same compound?
A: Its EtBr fluorescence is 48.9694.

Q: And the EtBr fluorescence (EtBr 2 µg/ml, cycle 14)?
A: Its EtBr fluorescence is 51.1321.

Q: And the EtBr fluorescence (EtBr 2 µg/ml, cycle 15)?
A: The EtBr fluorescence was 53.474.

Q: And the EtBr fluorescence (EtBr 2 µg/ml, cycle 16)?
A: The EtBr fluorescence was 55.7291.

Q: What about the EtBr fluorescence (EtBr 2 µg/ml, cycle 17) of the same compound?
A: Its EtBr fluorescence is 58.1283.

Q: And the EtBr fluorescence (EtBr 2 µg/ml, cycle 18)?
A: The EtBr fluorescence was 60.3944.

Q: And the EtBr fluorescence (EtBr 2 µg/ml, cycle 19)?
A: The EtBr fluorescence was 61.6874.

Q: What about the EtBr fluorescence (EtBr 2 µg/ml, cycle 20) of the same compound?
A: The EtBr fluorescence was 63.905.

Q: And the EtBr fluorescence (EtBr 2 µg/ml, cycle 21)?
A: The EtBr fluorescence was 66.148.

Q: And the EtBr fluorescence (EtBr 2 µg/ml, cycle 22)?
A: The EtBr fluorescence was 68.0158.

Q: What about the EtBr fluorescence (EtBr 2 µg/ml, cycle 23) of the same compound?
A: Its EtBr fluorescence is 69.3444.

Q: What about the EtBr fluorescence (EtBr 2 µg/ml, cycle 24) of the same compound?
A: Its EtBr fluorescence is 71.4819.

Q: And the EtBr fluorescence (EtBr 2 µg/ml, cycle 25)?
A: The EtBr fluorescence was 72.9181.

Q: What about the EtBr fluorescence (EtBr 2 µg/ml, cycle 26) of the same compound?
A: Its EtBr fluorescence is 74.6918.
